Source: patent US20240342156A1, “METHODS FOR TREATING PAIN” (Xenon Pharmaceuticals Inc., priority 2019, published 2024)

System: rat spinal nerve ligation (SNL)/Chung model of neuropathic pain
Experiment: Spinal nerve ligation (SNL)/Chung model, thermal allodynia, cold plate test on lesioned paw
Type: in vivo
Protocol: Objective: The efficacy of Compound A was assessed using the rat spinal nerve ligation (SNL)/Chung model of neuropathic pain. The SNL model in rats was developed as described previously (Chung J M, Kim H K, Chung K. “Segmental spinal nerve ligation model of neuropathic pain.” Methods Mol. Med. 99 (2004) 35-45).
Study Design. Briefly, on Day 0, von Frey and cold plate tests were used for baseline measurements of tactile and cold allodynia respectively. Post-baseline measurements, rats (171-209 g male Sprague Dawley) were anesthetized and an incision at the L4-S2 level was performed to expose the left L5 nerve. […] The wound was then sutured and the rats were allowed to recover. On Day 13, post-surgery baselines for tactile and cold allodynia were measured to verify neuropathic pain. Animals were assigned to treatment groups based on the post-surgery baseline score.
Dosing: For efficacy testing, Compound A was dosed orally once a day for 5 consecutive days from Day 14-18.
The cold plate apparatus was maintained at 4±1° C. and was surrounded by an acrylic glass enclosure. Rats were placed on the plate for a period of 5 minutes. The latency to 1st paw-withdrawal, total number of paw withdrawals, and total duration of withdrawal responses were recorded for the surgery hind paw.

[1] = Day 14, test 1 h after administration, 128 mg/kg p.o.
[2] = Day 18, test 1 h after administration, 128 mg/kg p.o. once on Day 14 and on Day 18

**Q.** Which “Total duration of withdrawal responses (s), Mean ± s.e.m.” value [1] does the source give for CN1CC[C@]23c4c5ccc(O)c4O[C@H]2[C@@H](O)C=C[C@H]3[C@H]1C5.Cl [Morphine, Morphine hydrochloride, reference compound] here?
**A.** Its value is 4.9 ± 2.4 s.

**Q.** And the “Total duration of withdrawal responses, compared with Vehicle (p.o.), Δ%” value [1]?
**A.** Its value is “+123%”.

**Q.** And the “Total duration of withdrawal responses (s), Mean ± s.e.m.” value [2]?
**A.** Its value is 3.8 ± 2.7 s.

**Q.** What about the “Total duration of withdrawal responses, compared with Vehicle (p.o.), Δ%” value [2] of the same molecule?
**A.** Its value is −65%.
